# In publication PMC5996148:
# The other results are listed elsewhere or left out.
# Assays:
# Test in all cases: protein microarray (ProtoArray v5.0), streptavidin-Alexa Fluor 647
# Settings in all cases: 3'-biotin; 20 mM Tris (pH 7.5), 5 mM MgCl2, 100 mM KCl, 0.1% Tween-20, A/T-rich and random oligonucleotide blockers; temperature not stated; high values mean tight binding
# [1] = system: ETHE1 (human)
# [2] = system: ETS1 (human)
# [3] = system: Elongation factor 1-gamma (human)
# [4] = system: Endothelial protein C receptor (human)
# [5] = system: Erythropoietin (human)
# [6] = system: Eukaryotic translation initiation factor 3 subunit E (human)
# [7] = system: Exocyst complex component 3 (human)
# [8] = system: Ezrin (human)
# [9] = system: FABP3 (human)
# [10] = system: FABP7 (human)
sequence,measurement,setting,value
GGTGACAGGGGTATGGGGAGGGG [G4-2 biotinylated (Ct1)],binding signal,[1],-0.379 z-score
same,binding signal,[2],-0.379 z-score
same,binding signal,[3],-0.397 z-score
same,binding signal,[4],-0.363 z-score
same,binding signal,[5],-0.391 z-score
same,binding signal,[6],-0.382 z-score
same,binding signal,[7],-0.399 z-score
same,binding signal,[8],3.51 z-score
same,binding signal,[9],-0.399 z-score
same,binding signal,[10],-0.364 z-score

# In a second layout: entries from further up
sequence | measurement | setting | value
GGTGACAGGGGTATGGGGAGGGG [G4-2 biotinylated (Ct1)] | binding signal | [4] | -0.363 z-score
same | binding signal | [5] | -0.391 z-score
